In PMC6839619:
Results are given in words; binding and its absence hold for the method and conditions named. A result given as binding can be weak or reduced; the word gives no strength. Where a sequence is shown, tags or fusion partners need not be part of it.

Legend:
StrepII-GFP-TRIM46 [1] = molecular target: T1, StrepII-GFP-TRIM46 (UniProt Q7Z4K8); test: TIRF microscopy of in vitro reconstituted dynamic microtubules; without EBs; TRIM46 with 480AnkG or 480AnkG-NN; single MTs and TRIM46-decorated MT bundles; both purified
T1 sequence: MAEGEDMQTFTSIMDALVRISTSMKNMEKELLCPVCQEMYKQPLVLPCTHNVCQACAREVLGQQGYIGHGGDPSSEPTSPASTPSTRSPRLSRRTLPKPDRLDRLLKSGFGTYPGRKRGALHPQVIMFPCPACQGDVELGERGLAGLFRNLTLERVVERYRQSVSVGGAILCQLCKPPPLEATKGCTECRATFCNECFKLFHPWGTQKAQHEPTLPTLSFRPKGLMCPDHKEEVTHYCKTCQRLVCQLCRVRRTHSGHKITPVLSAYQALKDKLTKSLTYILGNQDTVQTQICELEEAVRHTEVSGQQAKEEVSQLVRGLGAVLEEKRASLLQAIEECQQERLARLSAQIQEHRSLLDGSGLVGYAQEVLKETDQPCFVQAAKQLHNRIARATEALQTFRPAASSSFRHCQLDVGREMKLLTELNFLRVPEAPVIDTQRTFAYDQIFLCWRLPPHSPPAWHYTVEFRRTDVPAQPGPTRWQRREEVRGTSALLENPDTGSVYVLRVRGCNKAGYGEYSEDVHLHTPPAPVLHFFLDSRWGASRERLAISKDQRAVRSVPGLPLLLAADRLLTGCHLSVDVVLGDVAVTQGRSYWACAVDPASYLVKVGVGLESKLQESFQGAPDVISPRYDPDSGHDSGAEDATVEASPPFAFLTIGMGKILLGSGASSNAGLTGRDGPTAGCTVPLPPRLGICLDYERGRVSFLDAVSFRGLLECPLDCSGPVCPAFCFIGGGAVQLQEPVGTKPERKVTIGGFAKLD

StrepII-GFP-TRIM46 [2] = molecular target: T1, StrepII-GFP-TRIM46; test: TIRF microscopy of in vitro reconstituted dynamic microtubules; 20 nM dark-EB3, 20 nM GFP-TRIM46 and 10 nM 480AnkG-mCherry together; single MTs and TRIM46-decorated two-MT bundles; MRB80 buffer pH 6.8 with 50 mM KCl, 30°C; both purified

binding (StrepII-GFP-TRIM46 [1]): binds weakly | binding (StrepII-GFP-TRIM46 [2]): binds weakly
Substance: StrepII-480AnkG-mCherry
